The values below come from patent US20200207836A1.

This experiment addresses Nluc/AT1 (human). In words: BRET, live cells.

No constants are given. Whether binding was seen depends on the method and setting. Binding calls can cover weak binding; strength is not graded here.

B1: mCherry/RAGE338-361 (peptide, not shown: large carriers)
chain: LGTLALALGILGGLGTAALLIGVI
Turning to B1, the binding result is listed as “binds”.
